PubChem BioAssay AID743454 – Peter MacCallum Cancer Centre – 2014
Here is an unselected part of about 18,000 deposited reagents. 450 of them (2.5%) were called active. 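Single biological run; no consistent viability z cut-off exists, so the class columns, not z-scores, define the calls.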 Unmarked entries are inactive. The numbers tell different reagents against one gene apart. Reagent sequences are not shown.

- Assay: 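Search for knock-downs that restore vorinostat killing in resistant colon cancer cells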 (primary screen)
- Cell system: human HCT116-VR colon cancer cells, selected for vorinostat resistance
- Reagent: siRNA pool against human genes, 40 nM siRNA pool
- Duration: vorinostat for 24 h, read-out about 72 h after transfection
- Conditions: vorinostat at 2.5 µM final
- Read-out: 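Two measures, CellTiter-Fluor viability and luminescent caspase 3/7 activity, each as fold change against same-plate mock wells, mean of duplicates, then screen-wide robust z-score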
- Direction: viability robust z-score: higher = more viable cells than screen typical; caspase robust z-score: higher = more caspase 3/7 activity than screen typical
- Rule for the call: 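a knock-down is a hit when classed RV1 or RV2 for lowered viability, or CA1 or CA2 for caspase activation; those lethal without drug were dropped; hits were retested singly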

SNX29 #1 gave viability hit class no change; caspase hit class no change; viability robust z-score -0.26; caspase robust z-score 1.36. Silencing of SNX29 #2 came out at: viability hit class no change; caspase hit class no change; viability robust z-score 0.88; caspase robust z-score 0.72. With knock-down of SERGEF, the screen gave viability hit class no change; caspase hit class no change; viability robust z-score 0.08; caspase robust z-score 0.44. KCNK3 showed viability hit class no change; caspase hit class no change; viability robust z-score 0.3; caspase robust z-score 0.2. After knock-down of STEAP4 the results were viability hit class no change; caspase hit class no change; viability robust z-score 0.06; caspase robust z-score 2.4. For RGR, the entry reads viability hit class no change; caspase hit class no change; viability robust z-score 0.22; caspase robust z-score 0.24.

PKM gave viability hit class no change; caspase hit class no change; viability robust z-score 0.15; caspase robust z-score 1.6. SOHLH2 showed viability hit class no change; caspase hit class no change; viability robust z-score 0.52; caspase robust z-score -0.15. USP37 scored viability hit class no change; caspase hit class no change; viability robust z-score -0.55; caspase robust z-score 0.64. After knock-down of KRT23, the screen gave viability hit class no change; caspase hit class no change; viability robust z-score 0.29; caspase robust z-score 2.03. Against CXCR2, the values are viability hit class no change; caspase hit class no change; viability robust z-score 1.34; caspase robust z-score 0.18. TUBGCP6 gave viability hit class no change; caspase hit class no change; viability robust z-score -0.36; caspase robust z-score 0.8.

Knock-down of RAB20 resulted in: viability hit class no change; caspase hit class no change; viability robust z-score 0.68; caspase robust z-score -0.74. After knock-down of ARSL, the screen gave viability hit class no change; caspase hit class no change; viability robust z-score 0.84; caspase robust z-score 0.32.
